Among the data in PMC6999089 are binding values, retold here.

Amino acid sequences for entries named in this document (tags omitted). A change or cut given only in a name is not applied to a line headed by its entry.
UniProt Q7JQ32: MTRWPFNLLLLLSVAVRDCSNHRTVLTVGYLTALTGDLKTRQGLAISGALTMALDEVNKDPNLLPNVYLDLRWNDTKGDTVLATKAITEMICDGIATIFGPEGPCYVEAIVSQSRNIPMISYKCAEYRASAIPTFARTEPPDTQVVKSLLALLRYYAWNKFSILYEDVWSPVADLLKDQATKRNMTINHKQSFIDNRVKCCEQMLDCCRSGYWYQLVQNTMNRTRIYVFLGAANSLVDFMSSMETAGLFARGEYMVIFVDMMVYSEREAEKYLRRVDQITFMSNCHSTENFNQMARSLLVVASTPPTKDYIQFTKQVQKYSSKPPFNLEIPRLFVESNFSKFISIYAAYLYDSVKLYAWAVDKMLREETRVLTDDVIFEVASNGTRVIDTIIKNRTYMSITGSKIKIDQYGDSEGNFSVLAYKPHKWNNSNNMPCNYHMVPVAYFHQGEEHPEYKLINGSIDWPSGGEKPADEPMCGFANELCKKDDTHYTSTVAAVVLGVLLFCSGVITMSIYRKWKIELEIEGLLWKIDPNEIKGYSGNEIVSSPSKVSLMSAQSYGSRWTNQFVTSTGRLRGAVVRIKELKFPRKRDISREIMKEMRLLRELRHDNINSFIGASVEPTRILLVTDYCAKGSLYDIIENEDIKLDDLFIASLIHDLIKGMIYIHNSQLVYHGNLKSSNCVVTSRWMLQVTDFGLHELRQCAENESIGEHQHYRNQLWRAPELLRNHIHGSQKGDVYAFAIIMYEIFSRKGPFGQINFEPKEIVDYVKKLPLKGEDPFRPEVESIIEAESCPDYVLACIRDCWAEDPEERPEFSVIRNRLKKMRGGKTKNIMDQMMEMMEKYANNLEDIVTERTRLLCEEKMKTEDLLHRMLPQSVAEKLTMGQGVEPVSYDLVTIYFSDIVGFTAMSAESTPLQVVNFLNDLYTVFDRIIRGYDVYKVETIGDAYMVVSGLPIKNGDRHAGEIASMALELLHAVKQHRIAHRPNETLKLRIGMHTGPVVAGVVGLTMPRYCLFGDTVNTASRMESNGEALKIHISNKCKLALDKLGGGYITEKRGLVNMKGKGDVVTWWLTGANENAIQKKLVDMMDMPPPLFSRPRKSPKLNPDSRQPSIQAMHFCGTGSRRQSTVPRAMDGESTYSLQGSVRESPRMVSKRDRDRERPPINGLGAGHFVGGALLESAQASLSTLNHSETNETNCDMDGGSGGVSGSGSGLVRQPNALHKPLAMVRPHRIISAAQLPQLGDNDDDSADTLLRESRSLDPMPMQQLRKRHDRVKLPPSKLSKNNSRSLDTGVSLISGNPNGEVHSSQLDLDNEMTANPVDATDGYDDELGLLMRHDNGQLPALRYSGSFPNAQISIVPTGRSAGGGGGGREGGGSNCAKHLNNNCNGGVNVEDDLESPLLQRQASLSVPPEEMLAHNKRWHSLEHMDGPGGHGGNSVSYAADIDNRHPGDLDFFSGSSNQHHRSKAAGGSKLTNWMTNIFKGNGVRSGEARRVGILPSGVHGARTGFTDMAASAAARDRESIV
UniProt P08646: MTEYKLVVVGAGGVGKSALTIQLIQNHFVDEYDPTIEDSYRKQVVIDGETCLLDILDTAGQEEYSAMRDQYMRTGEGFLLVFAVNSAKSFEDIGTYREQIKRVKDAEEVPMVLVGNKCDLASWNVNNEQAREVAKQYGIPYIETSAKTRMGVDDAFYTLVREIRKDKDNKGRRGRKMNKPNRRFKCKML

In the assay the target is FLAG-tagged Gyc76C mutant lacking the kinase homology domain (Drosophila) (UniProt Q7JQ32). The assay can be described thus: co-IP; S2 cells co-transfected with V5-Ras85D and FLAG-Gyc76C (WT or ΔKHD); lysis in 30 mM Tris pH 7.5, 150 mM NaCl, 1% CHAPS; IP with anti-FLAG M2 and Dynabeads M280 at 4°C; wash with 500 mM NaCl, 1% CHAPS; blot with anti-V5 and anti-FLAG.

No constants are given. Whether binding was seen depends on the method and setting. In cells and extracts the contact can be indirect. Binding calls can cover weak binding; strength is not graded here.

As to “V5-tagged Ras85D (from UniProt P08646 1-189)”, the binding result is on record as “binds”.
